Measurements from the supplement of paper PMC9433722.
Where a name gives a salt, the structure may show the parent alone. Some of the results follow. Single values are uncertain, as repeats are few or missing.

Legend:
[1] = tested on: Saos-2; experiment: cell viability (CCK-8) relative to DMSO control (% of control); higher = less cytotoxic; settings: 10 µM; 48 h
[2] = tested on: U2OS; experiment: as above; settings: 10 µM; 48 h

SMILES	cell viability [1]	cell viability [2]
O=c1n(CCCN2CCN(c3cccc(Cl)c3)CC2)nc2ccccn12 [Trazodone·HCl]	97.6	85
NC(=O)N1c2ccccc2C=Cc2ccccc21 [Carbamazepine]	72.4	87.5
CCCCNC(=O)NS(=O)(=O)c1ccc(C)cc1 [Tolbutamide]	64.7	110
NS(=O)(=O)c1cc2c(cc1Cl)NCNS2(=O)=O [Hydrochlorothiazide]	109	85.8
CCN(CC)CCNC(=O)c1c(C)[nH]c(/C=C2\C(=O)Nc3ccc(F)cc32)c1C [Sunitinib . malate]	25.5	53.2
NC(=O)N[C@@H](CCC(=O)O)C(=O)O [Carglumic Acid]	119	107
CC(C)NCC(O)COc1ccc(COCCOC(C)C)cc1 (stereo unspecified) [Bisoprolol Fumarate]	116	122
CCCCS(=O)(=O)N[C@@H](Cc1ccc(OCCCCC2CCNCC2)cc1)C(=O)O [Tirofiban·HCl monohydrate]	107	104
NCCS [Cysteamine·HCl]	105	98.8
N=C(N)NC(=O)c1nc(Cl)c(N)nc1N [Amiloride . hydrochloride . dihydrate]	54.8	115
CNCCCN1c2ccccc2CCc2ccccc21 [Desipramine·HCl]	103	111
CCCc1nc(C)c2c(=O)nc(-c3cc(S(=O)(=O)N4CCN(CC)CC4)ccc3OCC)[nH]n12 [Vardenafil]	65.1	95.7
NNCCc1ccccc1 [Phenelzine Sulfate]	105	105
C[N+]1(C)CCC(OC(=O)C(O)(c2ccccc2)C2CCCC2)C1 (stereo unspecified) [Glycopyrrolate Iodide]	108	87.5
N#Cc1ccc(C(c2ccc(C#N)cc2)n2cncn2)cc1 [Letrozole]	64.4	95.5
COc1cc([C@@H]2c3cc4c(cc3[C@@H](O[C@@H]3O[C@@H]5CO[C@@H](c6cccs6)O[C@H]5[C@H](O)[C@H]3O)[C@H]3COC(=O)[C@H]23)OCO4)cc(OC)c1O [Teniposide]	36.4	22.3
C[C@]12CC[C@@H]3c4ccc(O)cc4CC[C@H]3[C@@H]1CCC2=O [Estrone]	66.2	110

SMILES	cell viability [1]	cell viability [2]
NC(=O)c1cnccn1 [Pyrazinamide]	105	97
CC(=O)Nc1nnc(S(N)(=O)=O)s1 [Acetazolamide]	95	80
COc1cc(CNC(=O)CCCC/C=C/C(C)C)ccc1O [Capsaicin]	56	101
CC[C@H](C)C(=O)O[C@H]1C[C@@H](C)C=C2C=C[C@H](C)[C@H](CC[C@@H]3C[C@@H](O)CC(=O)O3)[C@H]21 [Lovastatin]	56.9	102
Oc1ncnc2[nH]ncc12 [Allopurinol]	58.7	105
CC1(C)O[C@@H]2C[C@H]3[C@@H]4CCC5=CC(=O)C=C[C@]5(C)[C@@]4(F)[C@@H](O)C[C@]3(C)[C@]2(C(=O)CO)O1 [Triamcinolone Acetonide]	98.6	83.3
O=C1CCc2cc(OCCCCc3nnnn3C3CCCCC3)ccc2N1 [Cilostazol]	94.8	93.3
COCCCC/C(=N\OCCN)c1ccc(C(F)(F)F)cc1 [Fluvoxamine Maleate]	96.9	99.1
O=P(O)(O)C(Sc1ccc(Cl)cc1)P(=O)(O)O [Tiludronate Disodium]	110	98.2
Nc1nc(=O)n([C@@H]2CS[C@H](CO)O2)cc1F [Emtricitabine]	60.1	113
CCOC(=O)C1=C[C@@H](OC(CC)CC)[C@H](NC(C)=O)[C@@H](N)C1 [Oseltamivir Phosphate]	62.7	99.5
Nc1ncn([C@@H]2O[C@H](CO)[C@@H](O)[C@H]2O)c(=O)n1 [5-Azacytidine]	124	101
CC(N)C12CC3CC(CC(C3)C1)C2 (stereo unspecified) [Rimantadine·HCl]	65.9	115
CC1(C)S[C@@H]2[C@H](NC(=O)[C@H](N)c3ccccc3)C(=O)N2[C@H]1C(=O)O [Ampicillin Trihydrate]	66.8	99.2
Cc1c(OCC(F)(F)F)ccnc1C[S+]([O-])c1nc2ccccc2[nH]1 (stereo unspecified) [Lansoprazole]	119	100
CCCc1cc(=O)[nH]c(=S)[nH]1 [Propylthiouracil]	106	99.5

Already shown: an excerpt of the list.
SMILES	cell viability [1]	cell viability [2]
CCOC(=O)C1=C[C@@H](OC(CC)CC)[C@H](NC(C)=O)[C@@H](N)C1 [Oseltamivir Phosphate]	62.7	99.5
Nc1ncn([C@@H]2O[C@H](CO)[C@@H](O)[C@H]2O)c(=O)n1 [5-Azacytidine]	124	101
CC(N)C12CC3CC(CC(C3)C1)C2 (stereo unspecified) [Rimantadine·HCl]	65.9	115
CC1(C)S[C@@H]2[C@H](NC(=O)[C@H](N)c3ccccc3)C(=O)N2[C@H]1C(=O)O [Ampicillin Trihydrate]	66.8	99.2
Cc1c(OCC(F)(F)F)ccnc1C[S+]([O-])c1nc2ccccc2[nH]1 (stereo unspecified) [Lansoprazole]	119	100
CCCc1cc(=O)[nH]c(=S)[nH]1 [Propylthiouracil]	106	99.5
